Test results from the supplement of paper PMC4862054.
Small differences around the control level are noise.

Key:
Test in all cases: normalised response (% of control), CellTox Green; higher = less cell death (100 = DMSO, 0 = benzethonium chloride kill control)
Conditions in all cases: incubation time: 72 h
CAL-148 = test system: CAL-148
Method: (§1)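 DSRT, 72 h incubation, CellTox Green / CellTiter-Glo readout. Signal is normalised to DMSO and benzethonium chloride controls. Value is the normalised response at the lowest tested concentration.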

CAL-120 = test system: CAL-120
Method: as §1

MFM-223 = test system: MFM-223
Method: as §1

MDA-MB-436 = test system: MDA-MB-436
Method: as §1

HDQ-P1 = test system: HDQ-P1
Method: as §1

MCF-10A = test system: MCF-10A
Method: as §1

Hs578T = test system: Hs578T
Method: as §1

MDA-MB-468 = test system: MDA-MB-468
Method: as §1

MDA-MB-231 = test system: MDA-MB-231
Method: as §1

MDA-MB-453 = test system: MDA-MB-453
Method: as §1

BT-549 = test system: BT-549
Method: as §1

CAL-85-1 = test system: CAL-85-1
Method: as §1

HCC1937 = test system: HCC1937
Method: as §1

HCC1143 = test system: HCC1143
Method: as §1

BT-474 = test system: BT-474
Method: as §1

DU-4475 = test system: DU-4475
Method: as §1

CAL-51 = test system: CAL-51
Method: as §1

HCC1599 = test system: HCC1599
Method: as §1

SMILES	normalised response (CAL-148) [%]	normalised response (CAL-120) [%]	normalised response (MFM-223) [%]	normalised response (MDA-MB-436) [%]	normalised response (HDQ-P1) [%]	normalised response (MCF-10A) [%]	normalised response (Hs578T) [%]	normalised response (MDA-MB-468) [%]	normalised response (MDA-MB-231) [%]	normalised response (MDA-MB-453) [%]	normalised response (BT-549) [%]	normalised response (CAL-85-1) [%]	normalised response (HCC1937) [%]	normalised response (HCC1143) [%]	normalised response (BT-474) [%]	normalised response (DU-4475) [%]	normalised response (CAL-51) [%]	normalised response (HCC1599) [%]
Cc1ccc(-c2cc(C(F)(F)F)nn2-c2ccc(S(N)(=O)=O)cc2)cc1 [Celecoxib] (1 nM)	70.4	106	99.2	84.1	101	95	113	86	112	99.3	97.9	97.3	102	107	96.7	103	93.1	90.8
COc1cccc2cc(-c3nc([C@H]4CC[C@H](C(=O)O)CC4)n4ncnc(N)c34)[nH]c12 [OSI-027] (1 nM)	105	96.6	102	77.3	92.4	54.6	100	76.8	96.9	111	97.3	102	62.8	54.8	101	98	96.2	89.6
COc1cc(O)c2c(c1)/C=C/C[C@H](O)[C@H](O)C(=O)/C=C\C[C@H](C)OC2=O [(5Z)-7-Oxozeaenol] (1 nM)	106	98.6	104	96.5	92.2	98.6	104	82.2	121	96.9	103	90.6	112	82.4	96.5	109	110	111
CC[C@@]1(O)C(=O)OCc2c1cc1n(c2=O)Cc2cc3c(CN(C)C)c(O)ccc3nc2-1 [Topotecan] (1 nM)	–	104	101	92.8	–	89.8	101	84.5	111	102	101	96	58.7	123	101	98.2	66.3	103
O=P1(N(CCCl)CCCl)NCCCO1 (configuration not stated) [Cyclophosphamide] (4 nM)	86.4	97.1	101	100	101	103	62.6	96.2	106	106	95.8	98.5	98.1	68.2	101	102	114	101
COc1cccc2c1C(=O)c1c(O)c3c(c(O)c1C2=O)C[C@@](O)(C(C)=O)C[C@@H]3O[C@H]1C[C@H](N)[C@H](O)[C@H](C)O1 [Daunorubicin] (0.1 nM)	102	98.2	102	78.4	102	109	77.9	60.5	108	111	91.7	107	92.1	114	100	107	103	110
CCOc1cc2ncc(C#N)c(Nc3ccc(OCc4ccccn4)c(Cl)c3)c2cc1NC(=O)/C=C/CN(C)C [Neratinib] (0.1 nM)	–	108	94.2	92.8	99	108	110	86.2	123	106	101	104	105	85.3	64.6	115	108	114
C[C@@H]1C[C@H]2[C@@H]3CCC4=CC(=O)C=C[C@]4(C)[C@@]3(F)[C@@H](O)C[C@]2(C)[C@@]1(O)C(=O)CO [Dexamethasone] (1 nM)	79.4	102	66.2	68.3	65.7	72.9	–	63.4	92.3	64.5	97.4	104	58.8	113	99.7	96.3	73.3	93.1
O=C(O)CNC(=O)c1c(O)c2ccccc2n(Cc2ccccc2)c1=O [IOX-2] (5 nM)	–	102	107	–	–	74.9	78.2	114	117	97.6	89.4	110	114	127	100	103	95.1	104
COc1cc2/c(=N/c3ccc(Br)cc3F)nc[nH]c2cc1OCC1CCN(C)CC1 [Vandetanib] (0.1 nM)	57.6	97.8	83.3	94.2	98.8	73.4	85.2	105	–	97.5	104	107	97.8	–	97	89.9	108	–
COC1=C2C[C@@H](C)C[C@H](OC)[C@H](O)[C@@H](C)/C=C(\C)[C@H](OC(N)=O)[C@@H](OC)/C=C\C=C(/C)C(=O)NC(=CC1=O)C2=O [Geldanamycin] (1 nM)	–	99	99.9	58.8	–	107	76.4	–	107	103	69.7	96.2	109	116	99.7	102	109	99.1
CCCCCOC(=O)Nc1nc(=O)n([C@@H]2O[C@H](C)[C@@H](O)[C@H]2O)cc1F [Capecitabine] (1 nM)	102	99.2	93.5	95.2	74.6	86.7	104	–	113	107	73.8	103	101	89.2	101	103	111	93.9

Individual results from the results shown:
For normalised response (HCC1599) [%], COc1cccc2cc(-c3nc([C@H]4CC[C@H](C(=O)O)CC4)n4ncnc(N)c34)[nH]c12 [OSI-027] (1 nM) has 89.6
For normalised response (MDA-MB-453) [%], CCCCCOC(=O)Nc1nc(=O)n([C@@H]2O[C@H](C)[C@@H](O)[C@H]2O)cc1F [Capecitabine] (1 nM) has 107
